Assay results: the supplement of paper PMC11006884
This list holds what a sample rich in targets with a hit left over. Single values of this set are uncertain. The list shows a part of the results, in another mix than the full data.

Each target was assayed with COC(=O)/C=C/c1ccccc1 [methyl cinnamate] (assay: log2 ratio of iodoacetamide-alkyne labeling of the cysteine site, DMSO over compound (competition); higher = stronger covalent engagement of the cysteine by the compound, active = 1 or more). Conditions: 500 µM; treatment time 1 h; system: HEK293T cell lysate.
Procedure, shortened: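 For each cysteine, the log2 competition ratio is mean control-channel reporter intensity over mean compound-channel reporter intensity. HEK293T lysate (2 mg/mL) was exposed to vehicle or electrophile (500 µM, 1 h, ambient temperature), labelled with iodoacetamide alkyne (1 h), clicked to sCIP-TMT reagents, digested overnight with trypsin at 37 °C, streptavidin-enriched and analysed by Orbitrap Eclipse LC-MS/MS with FAIMS and FragPipe. Cysteines quantified in only one of three replicates, each with duplicate channels, were excluded.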

log2 ratio of iodoacetamide-alkyne labeling, inactive:
UniProt P78527_C3781 0.0515
YWHAZ C94 (UniProt P63104) -0.19
CLTC C1102 (UniProt Q00610) 0.172
UniProt P63279_C138 -0.00953
PURA C292 (UniProt Q00577) 0.203
UniProt P62280_C60 0.387
RPS27A C145 (UniProt P62979) 0.298
PPIA C52 (UniProt P62937) 0.14
UniProt Q00341_C878 0.0747
GSTO1 C90 (UniProt P78417) -0.174
RPS27A C144 (UniProt P62979) 0.128
UniProt P62888_C92 -0.0536
UniProt Q02040_C549 0.519
RPL7A C174 (UniProt P62424) -0.349
HMGCS1 C12 (UniProt Q01581) 0.0575
UniProt P62873_C317 0.035
CLTC C934 (UniProt Q00610) 0.0625
UniProt P63244_C182 0.162
MRPS5 C211 (UniProt P82675) 0.051
UniProt P62753_C12 0.106
UniProt P68363_C315 0.0853
CLTC C459 (UniProt Q00610) 0.188
AP2B1 C918 (UniProt P63010) -0.139

2 records drawn at random from those above:
log2 ratio of iodoacetamide-alkyne labeling, inactive:
UniProt P62873_C317 0.035
YWHAZ C94 (UniProt P63104) -0.19
